Data source: PubChem BioAssay AID504804 (Drosophila RNAi Screening Center, 2011)
Test: 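dsRNAs that improve Kc cell survival under doxorubicin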 (primary screen). System: Drosophila Kc cells. Knock-down reagent: long dsRNA against Drosophila genes, 0.5 µg dsRNA per well. Duration: 96 h (48 h knock-down, then 48 h drug). Challenge: doxorubicin 5 µg/ml for 48 h, added 48 h after dsRNA. Measured: 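Viability measured as cellular ATP by luminescence after 48 h knock-down then 48 h doxorubicin at 5 µg/ml; unnormalised plate counts for each replicate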. Scale: raw ATP luminescence: higher = more viable cells, protection from doxorubicin. Rule for the call: 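Active when both duplicate wells lie at least 2 SD above the plate mean and protection is confirmed by rescreening and independent dsRNAs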.
In all, the deposit lists about 19,000 reagents; below is an unselected part of those with a known target gene and a result. Of all reagents, 47 (0.25%) were called active. 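Signals are raw, not normalised; exact z-scores behind calls not deposited; actives needed confirmation, so some wells reaching 2 SD are inactive.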 Names joined by + are all predicted targets of the reagent.

no.	Target gene	amplicon	raw ATP luminescence, replicate 1	raw ATP luminescence, replicate 2	call
1	Fpps (Farnesyl pyrophosphate synthase)	DRSC07429	57963	47993	inactive
2	Dora (Dorado)	DRSC19614	2.83e5	2.41e5	inactive
3	Dora (Dorado)	DRSC19781	3.62e5	2.80e5	inactive
4	Dora (Dorado)	DRSC20034	3.48e5	2.95e5	inactive
5	Dora (Dorado)	DRSC20035	2.72e5	2.18e5	inactive
6	AP-2mu (Adaptor Protein complex 2, mu subunit)	DRSC14090	48053	70817	inactive
7	CG18622	DRSC15360	78800	68030	inactive
8	CG42307 + mus312	DRSC11008	86113	1.08e5	inactive
9	Art6 (Arginine methyltransferase 6)	DRSC16583	76200	69650	inactive
10	Rae1	DRSC04577	75170	71003	inactive
11	row (relative of woc)	DRSC07076	49647	73653	inactive
12	Coa7 (Cytochrome c oxidase assembly factor 7)	DRSC20967	1.66e5	1.80e5	inactive
13	CG7514	DRSC08597	80433	99017	inactive
14	Snm1	DRSC12130	48027	25280	inactive
15	CG32683	DRSC17990	3.08e5	2.58e5	inactive
16	CG32683	DRSC18232	2.79e5	2.52e5	inactive
17	CG32683	DRSC18233	3.27e5	2.95e5	inactive
18	CG5946	DRSC10560	79987	70660	inactive
19	CG42712 (retired record)	DRSC01038	2.44e5	2.79e5	inactive
20	Uch-L5 (Ubiquitin carboxy-terminal hydrolase L5)	DRSC11314	42860	35357	inactive
21	IPIP (Inositol phosphatase interacting protein)	DRSC02164	1.22e5	64833	inactive
22	CG5770	DRSC06954	59463	63727	inactive
23	Mkrn1 (Makorin 1)	DRSC11870	63280	67477	inactive
24	HP1e (Heterochromatin Protein 1e)	DRSC16379	27807	48727	inactive
25	CG17633	DRSC02631	40850	70073	inactive
26	eIF4G2 (eukaryotic translation initiation factor 4G2)	DRSC14207	30903	31783	inactive
27	Obp50c + Obp50b	DRSC05482	87260	87857	inactive
28	CG16711	DRSC10220	86517	64740	inactive
29	CG13670	DRSC10029	59650	78090	inactive
30	ave (aveugle)	DRSC05502	53053	89080	inactive

In a second layout: results already given.
CG5946 [DRSC10560]
- raw ATP luminescence, replicate 1: 79987
- raw ATP luminescence, replicate 2: 70660
- call: inactive

CG42712 (retired record) [DRSC01038]
- raw ATP luminescence, replicate 1: 2.44e5
- raw ATP luminescence, replicate 2: 2.79e5
- call: inactive

Uch-L5 (Ubiquitin carboxy-terminal hydrolase L5) [DRSC11314]
- raw ATP luminescence, replicate 1: 42860
- raw ATP luminescence, replicate 2: 35357
- call: inactive

IPIP (Inositol phosphatase interacting protein) [DRSC02164]
- raw ATP luminescence, replicate 1: 1.22e5
- raw ATP luminescence, replicate 2: 64833
- call: inactive

CG5770 [DRSC06954]
- raw ATP luminescence, replicate 1: 59463
- raw ATP luminescence, replicate 2: 63727
- call: inactive

Mkrn1 (Makorin 1) [DRSC11870]
- raw ATP luminescence, replicate 1: 63280
- raw ATP luminescence, replicate 2: 67477
- call: inactive

HP1e (Heterochromatin Protein 1e) [DRSC16379]
- raw ATP luminescence, replicate 1: 27807
- raw ATP luminescence, replicate 2: 48727
- call: inactive

CG17633 [DRSC02631]
- raw ATP luminescence, replicate 1: 40850
- raw ATP luminescence, replicate 2: 70073
- call: inactive

eIF4G2 (eukaryotic translation initiation factor 4G2) [DRSC14207]
- raw ATP luminescence, replicate 1: 30903
- raw ATP luminescence, replicate 2: 31783
- call: inactive

Obp50c + Obp50b [DRSC05482]
- raw ATP luminescence, replicate 1: 87260
- raw ATP luminescence, replicate 2: 87857
- call: inactive

CG16711 [DRSC10220]
- raw ATP luminescence, replicate 1: 86517
- raw ATP luminescence, replicate 2: 64740
- call: inactive

The results go on.
no.	Target gene	amplicon	raw ATP luminescence, replicate 1	raw ATP luminescence, replicate 2	call
31	CG34328	DRSC19256	2.59e5	2.79e5	inactive
32	mre11 (meiotic recombination 11)	DRSC03570	1.08e5	1.07e5	inactive
33	Nup160 + RfC38	DRSC01997	1.15e5	71927	inactive
34	Pmvk (Phosphomevalonate kinase)	DRSC02032	66190	53780	inactive
35	Mettl3 (Methyltransferase like 3)	DRSC15921	72650	71200	inactive
36	CG9997	DRSC16591	56200	36870	inactive
37	Ote (Otefin)	DRSC07498	61140	63423	inactive
38	CG15247	DRSC17976	3.27e5	3.19e5	inactive
39	mRpS6 (mitochondrial ribosomal protein S6)	DRSC08470	59297	78850	inactive
40	Lerp (lysosomal enzyme receptor protein)	DRSC14750	41720	43080	inactive
41	Lerp (lysosomal enzyme receptor protein)	DRSC14751	58970	57150	inactive
42	Lerp (lysosomal enzyme receptor protein)	DRSC16030	75850	51890	inactive
43	Lerp (lysosomal enzyme receptor protein)	DRSC16031	54320	47200	inactive
44	Sting	DRSC06615	39790	74433	inactive
45	Marc (Mitochondrial amidoxime reducing component)	DRSC06614	47260	69350	inactive
46	FucTB (alpha1,3-fucosyltransferase B)	DRSC02745	49290	83773	inactive
47	CG32447	DRSC11732	27340	22683	inactive
48	CG32447	DRSC11805	66023	70997	inactive
49	Mur89F (Mucin related 89F)	DRSC15544	60570	63200	inactive
50	l(1)10Bb (lethal (1) 10Bb)	DRSC20346	2.42e5	2.42e5	inactive
51	CG4036	DRSC02735	75497	65323	inactive
52	CG12024	DRSC08229	62000	62567	inactive
53	CG12289	DRSC09874	70120	56583	inactive
54	sturkopf	DRSC08637	68400	64763	inactive
55	CG10068	DRSC12508	54447	18633	inactive
56	ari-2 (ariadne 2)	DRSC04672	59167	35570	inactive
57	RpL26 (Ribosomal protein L26)	DRSC10726	49633	41480	inactive
58	CG18745	DRSC15382	54653	48460	inactive
59	HDAC1 (Histone deacetylase 1)	DRSC08696	38960	39517	inactive
60	YME1L (YME1 like ATPase)	DRSC04378	78887	60313	inactive
61	CG11686	DRSC14350	71800	67770	inactive
62	egl (egalitarian)	DRSC04682	58090	45033	inactive
63	Or98a (Odorant receptor 98a)	DRSC16774	52680	37690	inactive
64	CG10175	DRSC13628	2.34e5	1.95e5	inactive
65	CG10175	DRSC14200	62620	64930	inactive
66	CG5196	DRSC15735	66790	51127	inactive
67	CG41020 (retired record)	DRSC20866	2.05e5	1.95e5	inactive
68	CG10177	DRSC14201	67910	60990	inactive
69	peg (pegasus)	DRSC15216	58810	59200	inactive
70	Tnpo (Transportin)	DRSC11309	29077	29297	inactive
71	CG7840	DRSC03075	1.06e5	65403	inactive
72	CG13727	DRSC10055	45047	40197	inactive
73	Cp190 (Centrosomal protein 190kD)	DRSC16607	51720	18357	inactive
74	Hel25E (Helicase at 25E)	DRSC03342	60713	47737	inactive
75	Cyp12a5 (Cytochrome P450 12a5)	DRSC16621	40290	47400	inactive
76	CG11378	DRSC18627	42040	52990	inactive
77	CG7377	DRSC10830	66307	62550	inactive
78	Cyp18a1 (Cytochrome P450 18a1)	DRSC20235	2.46e5	2.44e5	inactive
79	CG9570	DRSC20687	4.17e5	3.38e5	inactive
80	CG12490	DRSC04123	53677	59877	inactive
81	THG (tRNA-histidine guanylyltransferase)	DRSC01896	66140	71663	inactive
82	CG10909	DRSC14282	48673	41703	inactive
83	roh (reduction of Rh1)	DRSC04003	81993	92213	inactive
84	PlexB (Plexin B)	DRSC17177	57960	22060	inactive
